Source: ChEMBL document CHEMBL3988442, “University of Dundee, Small-Polar-MMV Screening Library” (2021).

By UniProt entry, the sequences of proteins in these tests, tags left out. Residues count along the entry.
UniProt A4I591, 1-473: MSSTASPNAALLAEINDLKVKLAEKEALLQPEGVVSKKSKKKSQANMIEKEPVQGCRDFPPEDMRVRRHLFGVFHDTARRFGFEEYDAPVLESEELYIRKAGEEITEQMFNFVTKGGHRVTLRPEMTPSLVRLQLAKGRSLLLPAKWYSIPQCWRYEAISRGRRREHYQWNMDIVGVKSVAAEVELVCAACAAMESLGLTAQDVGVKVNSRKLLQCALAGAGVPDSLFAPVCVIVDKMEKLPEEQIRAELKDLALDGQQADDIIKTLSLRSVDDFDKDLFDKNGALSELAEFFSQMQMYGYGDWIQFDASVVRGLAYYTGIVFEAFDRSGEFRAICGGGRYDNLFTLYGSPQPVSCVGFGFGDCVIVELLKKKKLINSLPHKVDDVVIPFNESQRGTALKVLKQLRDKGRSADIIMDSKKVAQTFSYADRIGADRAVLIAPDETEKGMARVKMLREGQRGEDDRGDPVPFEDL
UniProt Q8IDJ8, 1-583: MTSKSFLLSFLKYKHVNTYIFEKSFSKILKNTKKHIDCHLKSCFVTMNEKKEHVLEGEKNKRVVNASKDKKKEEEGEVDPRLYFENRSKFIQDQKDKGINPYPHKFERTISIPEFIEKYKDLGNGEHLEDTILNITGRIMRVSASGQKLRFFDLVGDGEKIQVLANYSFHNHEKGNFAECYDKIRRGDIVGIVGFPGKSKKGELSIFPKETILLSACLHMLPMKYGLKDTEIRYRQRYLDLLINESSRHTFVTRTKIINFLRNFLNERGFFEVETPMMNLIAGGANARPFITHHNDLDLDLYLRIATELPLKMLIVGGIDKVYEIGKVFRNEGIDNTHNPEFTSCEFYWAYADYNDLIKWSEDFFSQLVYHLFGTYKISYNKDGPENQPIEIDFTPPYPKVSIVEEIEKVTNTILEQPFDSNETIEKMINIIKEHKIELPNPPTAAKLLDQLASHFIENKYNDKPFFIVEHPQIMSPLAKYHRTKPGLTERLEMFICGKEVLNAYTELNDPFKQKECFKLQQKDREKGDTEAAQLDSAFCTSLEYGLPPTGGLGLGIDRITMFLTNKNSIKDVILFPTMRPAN

LiHisRS: 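Enzyme assay of histidyl-tRNA synthetase; the read-out is not stated. Target: Histidine-tRNA ligase, Leishmania infantum (UniProt A4I591). Concentration: 30 µM. Direction is inferred from retests: higher values go with stronger inhibition. The assay is labelled LdHisRS but filed under L. infantum. Of about 69,000 compounds tested this way, about 410 (0.6%) reached 50% or more in at least one test.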
PfKRS1: 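Lysine-tRNA ligase, Plasmodium falciparum 3D7 (UniProt Q8IDJ8). Enzyme assay of the cytosolic lysyl-tRNA synthetase in 384-well plates, read by luminescence. Tested at 30 µM. Higher reads as stronger inhibition, judged from the few compounds that gave an IC50. Size under these conditions: about 69,000 compounds, about 49 of them at 50% or above in at least one test.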

Each number is a percent effect as filed.
The record does not define 0% and 100%; most values in the screen are far below 50% and negative numbers occur (in some assays of this library far below -100).
The compounds are a random part of those screened.

Compound,LiHisRS,PfKRS1
O=C(c1ccc(F)cc1)N1CCC2(CCCN2CC2CC2)CC1,12.2%,4.341%
Cc1nc(CN2CCCC(NCc3c(C)nc4sccn34)C2)no1 (stereo not shown),2.74%,6.62%
COc1cccc(-c2cc(NCc3nc(C)cs3)n(C)n2)c1,9.677%,1.592%
O=C(Nc1cc(F)ccc1OCC1CCCO1)c1ccoc1 (stereo not shown),3.306%,0.3994%
O=C(C[C@@H]1COC[C@H]2CN(Cc3ccncc3)C[C@@H]12)N1CCCC1,23.08%,-0.4722%
CN(Cc1ccccc1CN1CCCC1)C(=O)c1c(O)cccc1O,18.75%,4.561%
CC(O)CN(CC(=O)NC(=O)NCC(F)(F)F)c1ccccc1 (stereo not shown),8%,6.123%
O=C(c1ccco1)N1CCC2(CCC(=O)N2Cc2ccncc2)CC1,11.54%,3.748%
CCn1cc(-c2cc(C(F)(F)F)nc(NC3CCCC3)n2)c(C)n1,12.64%,2.538%
CCOC(=O)c1nnc2ccccc2c1N1CCN(CC)CC1,24.73%,8.72%
Cn1cnc(S(=O)(=O)N2CC3(CCN(CC4CC4)C3)C2)c1,0%,-2.539%
CN(C)Cc1ccccc1NC(=O)c1ccc(C#N)cc1,26.76%,3.422%
CCc1cc(N2CCC(NC(=O)CCC3CCCO3)CC2)ncn1 (stereo not shown),-2.222%,2.292%
COc1cccc([C@H]2CN(C(=O)c3cc(C)on3)C[C@@H]2N)c1,14.17%,1.143%
COC(=O)CC(c1ccc(OC)c(OC)c1)c1oc(C)cc(=O)c1O (stereo not shown),0%,-3.265%
CN(CCc1ncnn1C1Cc2ccccc2C1)C1CCS(=O)(=O)C1 (stereo not shown),25.3%,0.3439%
CCc1noc(CN2CCN(c3nccs3)CC2)n1,7.692%,-1.757%
O=C(CCc1ccc(F)c(F)c1)N1CCCCC1Cn1cccn1 (stereo not shown),13.27%,-0.5283%
O=C(C1CCOC1)N1CCc2ncnc(C3CC3)c2CC1 (stereo not shown),8.333%,2.251%
COc1c(CNCCc2c[nH]c3cc(F)ccc23)c(C)nn1C,28.72%,1.76%
Cc1cnn(Cc2ccc(NC(=O)N[C@@H]3C=C[C@H](CO)C3)cc2)c1,16.88%,5.902%
O=C(O)C1CN(Cc2cccc(-c3ccccn3)c2)CCO1 (stereo not shown),15.22%,3.577%
CCc1cnc(N2C[C@@H](NC(=O)c3cscn3)[C@H]3COC[C@H]32)nc1,7.071%,4.278%
CC(=O)NCC1CCN(C(=O)NCCOc2ccc3c(c2)CCC3)CC1,12.04%,0.85%
CCCS(=O)(=O)N1CCO[C@H]2[C@H](OCc3ccccn3)CC[C@@H]21,15.38%,12.9%
c1ccc(-c2cc(CN3C[C@@H]4CC[C@H](C3)N(CC3CC3)C4)on2)cc1,26.67%,4.754%
CC/C=C(/C)C(=O)NCCc1csc(N2CCCC2)n1,29.46%,2.081%
Cc1nonc1NC(=O)CCn1cc(Br)ccc1=O,1.667%,1.251%
O=C1COc2ccc(C(=O)NS(=O)(=O)c3cc(F)ccc3F)cc2N1,2.632%,0.4498%
O=C(CN1C(=O)CCC1=O)N1CCC(S(=O)(=O)Cc2ccco2)CC1,7.692%,-2.749%
Cc1nnc(SCc2ccccn2)s1,4.124%,4.044%
CC(C)=CCCC(C)CN1CCC(n2cc(C(C)(C)O)nn2)CC1 (stereo not shown),18.18%,0.377%
Cc1ccccc1SCC(=O)Nn1cnnc1,13.33%,4.726%
CCNC(=O)[C@@H]1C[C@@H](NC(=O)c2cnc[nH]c2=O)CN1Cc1ccsc1,18.18%,5.705%
CNC(=O)[C@H]1C[C@@H]2CN(S(=O)(=O)c3ccc(F)cc3)C[C@@H]2N1C,20%,-0.4575%
O=C(O)c1ccccc1-n1cnc(CN2CCCCCC2)c1,7.092%,-0.08583%
COCCn1cnc(-c2cc(C(=O)NC(C)C)c3ccccn23)c1,13.68%,-3.237%
COc1c(CNCc2ccc(OCC(N)=O)cc2)c(C)nn1C,8.621%,1.187%
Cc1cccc(CO[C@H]2CO[C@@]3(CCN(S(=O)(=O)N(C)C)C3)C2)n1,24%,-1.451%
CCc1cc(N2CCN3CCCCC3C2)n2nccc2n1 (stereo not shown),14.75%,4.374%
Cc1cccc(Nc2nccnc2C2CCCN2CC(N)=O)n1 (stereo not shown),8.247%,4.631%
O=S(=O)(c1ccccc1)N1CC[C@]2(C[C@@H](OCC3CC3)CO2)C1,11.93%,6.626%
CC(C)(C)c1cc(=O)[nH]c(C2(N)CCCC2)n1,-3.922%,-0.6236%
O=C(c1cscn1)N1CC[C@@H]2[C@@H]1CCN2C1CCOCC1,7.547%,1.622%
COc1ccc(C(=O)CCc2nc(C3CC3)no2)cc1,9.756%,2.472%
O=C(NCc1ccc(-n2cncn2)nc1)c1ccc2c(c1)CCC2,13.16%,-0.7128%
CNS(=O)(=O)c1cccc(C(C)NCc2cccc(C)c2C)c1 (stereo not shown),6.25%,8.379%
COc1cccc2c1ccn2CC(=O)Nc1nc[nH]n1,19.57%,0.6424%
Cc1ccc(NC(=O)N2CCCC2)c(OCC2CCCO2)c1 (stereo not shown),1.923%,1.093%
COc1ncccc1C(=O)N1CCC(c2nnc(C3CC3)o2)CC1,18.45%,8.274%
Cc1csc2cc(C(=O)NC3CCCC3)cnc12,15.84%,3.441%
CC(C)c1cnc(CN2CCCS2(=O)=O)o1,-2.857%,5.359%
O=S(=O)(Cc1ccc(F)cc1)NCCc1nnc2n1CCC2,15.79%,3.759%
COc1ncnc2c1CCN(c1cc(C(F)(F)F)ncn1)CC2,7.547%,-3.963%
Nc1nc(C(=O)NCC2CCC3(CCNCC3)CO2)cs1 (stereo not shown),10.34%,4.783%
Cc1ccccc1C1(CNC(=O)NC(C)c2nncn2C)CC1 (stereo not shown),6.25%,0.02026%
Cc1cccc(CN2CCC3(CC2)CN(c2cnn(C)c2)C(=O)CO3)n1,15.38%,0.01211%
COc1ncnc2c1CCN(Cc1cccc(C)n1)CC2,18.09%,0.1033%
O=C(NC[C@]12COC[C@H]1CN(Cc1cccnc1)C2)c1ccsc1,18.18%,9.434%

Repeated from the top, 3 entries:

- O=C(c1ccc(F)cc1)N1CCC2(CCCN2CC2CC2)CC1 | LiHisRS: 12.2%; PfKRS1: 4.341%
- Cc1nc(CN2CCCC(NCc3c(C)nc4sccn34)C2)no1 (stereo not shown) | LiHisRS: 2.74%; PfKRS1: 6.62%
- COc1cccc(-c2cc(NCc3nc(C)cs3)n(C)n2)c1 | LiHisRS: 9.677%; PfKRS1: 1.592%